Reference: patent US8158656B2, “2-indolinone derivatives as multi-target protein kinase inhibitors and histone deacetylase inhibitors” (Shenzhen Chipscreen Biosciences Ltd., priority 2008, dated 2012)

System: total HDAC enzyme
Experiment: Total HDAC enzyme activity, HDAC Fluorimetric Assay (HeLa extract)
Format: biochemical, human
Procedure: Measurement of in vitro inhibition of total HDAC enzyme activity:
The in vitro inhibition of total HDAC enzyme was determined by HDAC Fluorimetric Assay/Drug Discovery Kit (BIOMOL) according to manufacture's instruction. • 1. Add Assay buffer, diluted trichostatin A or test inhibitor to appropriate wells of the microtiter plate. Following table lists examples of various assay types and the additions required for each test.
• 2. Add diluted HeLa extract or other HDAC sample to all wells except those that are to be “No Enzyme Controls” (Blank). • 3. Allow diluted Fluor de Lys™ Substrate and the samples in the microtiter plate to equilibrate to assay temperature (25° C.). • 4. Initiate HDAC reactions by adding diluted substrate (25 μl) to each well and mixing thoroughly. • 5. Allow HDAC reactions to proceed for desired length of time and then stop them by addition of Fluor de Lys™ Developer (50 μl). Incubate plate at room temperature (25° C.) for 10-15 min. • 6. Read samples in a microtiter-plate reading fluorimeter capable of excitation at a wavelength in the range 350-380 nm and detection of emitted light in the range 440-460 nm. Measurement of in vivo inhibition of HDAC subtype activity: […]

For `O=C(CCCCCCC(=O)Nc1ccccc1)NO` [SAHA, suberoylanilide hydroxamic acid, reference compound], the “% inhibition of total HDAC enzyme activity at 30 μM” value was 95.7%.
